Results are given in words; binding and its absence hold for the method and conditions named. In cells and extracts the contact can be indirect. Here binding means that the protein was enriched with, or labelled near, the bait; the list need not be complete. For some assays here: Tags and fused reporters may be left off the sequences shown.
What was measured:
[1] = biological target: T1, N-terminally tagged TCX5 (TAP bait) (Arabidopsis thaliana) (UniProt Q9SZD1); test: affinity purification with mass spectrometry; tandem affinity purification (GS^rhino tag) from Arabidopsis PSB-D cell suspension cultures expressing the tagged bait under the 35S promoter; 30 uM cisplatin added 16 h before harvest; 100 mg total protein extract; on-bead digest, LC-MS/MS; in …
T1 sequence: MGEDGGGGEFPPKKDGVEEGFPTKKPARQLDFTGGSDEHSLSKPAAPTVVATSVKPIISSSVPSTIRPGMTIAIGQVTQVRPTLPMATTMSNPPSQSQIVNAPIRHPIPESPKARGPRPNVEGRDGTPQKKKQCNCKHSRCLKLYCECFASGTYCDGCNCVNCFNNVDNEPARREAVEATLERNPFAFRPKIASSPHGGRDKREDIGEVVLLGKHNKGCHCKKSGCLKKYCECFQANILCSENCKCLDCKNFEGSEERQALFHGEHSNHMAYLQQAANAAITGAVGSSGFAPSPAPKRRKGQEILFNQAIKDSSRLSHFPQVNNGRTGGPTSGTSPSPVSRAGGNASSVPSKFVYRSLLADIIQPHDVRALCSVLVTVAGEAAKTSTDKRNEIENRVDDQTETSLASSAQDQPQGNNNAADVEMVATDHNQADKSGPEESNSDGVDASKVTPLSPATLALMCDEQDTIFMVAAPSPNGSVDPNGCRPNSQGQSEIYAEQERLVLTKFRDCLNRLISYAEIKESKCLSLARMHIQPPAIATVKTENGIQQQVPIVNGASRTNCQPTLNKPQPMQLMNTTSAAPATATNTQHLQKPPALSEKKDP

Protein sequences, listed by entry. Tags and fused reporters are not part of them. Lines headed by an entry give the natural chain unless they say otherwise; changes in a name come on top.
UniProt F4J4R5: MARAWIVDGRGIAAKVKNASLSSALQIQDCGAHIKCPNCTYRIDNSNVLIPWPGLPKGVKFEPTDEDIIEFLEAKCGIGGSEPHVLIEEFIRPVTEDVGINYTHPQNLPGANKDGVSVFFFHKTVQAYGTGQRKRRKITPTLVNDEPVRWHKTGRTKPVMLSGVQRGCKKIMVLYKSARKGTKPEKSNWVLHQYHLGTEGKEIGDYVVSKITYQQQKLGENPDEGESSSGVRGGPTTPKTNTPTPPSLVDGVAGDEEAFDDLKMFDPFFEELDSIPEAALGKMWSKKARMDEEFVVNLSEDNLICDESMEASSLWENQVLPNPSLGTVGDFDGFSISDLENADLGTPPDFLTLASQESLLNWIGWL
UniProt Q9FV71: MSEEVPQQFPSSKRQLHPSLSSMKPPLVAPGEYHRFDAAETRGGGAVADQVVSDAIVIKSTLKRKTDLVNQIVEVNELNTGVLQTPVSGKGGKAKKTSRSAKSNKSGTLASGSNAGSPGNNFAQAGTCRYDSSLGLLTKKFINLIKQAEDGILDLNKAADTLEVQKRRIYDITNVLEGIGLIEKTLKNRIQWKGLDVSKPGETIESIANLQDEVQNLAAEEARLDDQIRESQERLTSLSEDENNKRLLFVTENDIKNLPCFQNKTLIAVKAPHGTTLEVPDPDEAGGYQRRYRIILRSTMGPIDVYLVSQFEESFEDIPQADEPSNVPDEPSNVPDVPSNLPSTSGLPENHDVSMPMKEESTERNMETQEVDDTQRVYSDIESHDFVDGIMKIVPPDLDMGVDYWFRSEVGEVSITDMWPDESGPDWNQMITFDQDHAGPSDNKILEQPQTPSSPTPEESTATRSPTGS
UniProt Q9FNY0: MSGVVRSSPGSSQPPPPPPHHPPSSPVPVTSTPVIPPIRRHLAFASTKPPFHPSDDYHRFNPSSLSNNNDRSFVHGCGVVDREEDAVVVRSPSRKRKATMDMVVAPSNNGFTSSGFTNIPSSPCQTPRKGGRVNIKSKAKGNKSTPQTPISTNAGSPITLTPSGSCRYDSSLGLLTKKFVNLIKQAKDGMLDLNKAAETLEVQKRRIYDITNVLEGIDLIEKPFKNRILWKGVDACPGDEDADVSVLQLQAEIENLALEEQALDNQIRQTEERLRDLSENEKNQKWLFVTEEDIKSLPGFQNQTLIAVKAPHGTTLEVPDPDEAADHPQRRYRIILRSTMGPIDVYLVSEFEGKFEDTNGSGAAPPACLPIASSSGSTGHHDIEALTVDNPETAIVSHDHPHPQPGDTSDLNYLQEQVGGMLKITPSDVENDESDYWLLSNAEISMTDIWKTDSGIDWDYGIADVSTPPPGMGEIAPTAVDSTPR

[2] = biological target: N-terminally tagged LIN52A (TAP bait) (Arabidopsis thaliana); test: as above
[3] = biological target: C-terminally tagged NAC044 (TAP bait) (Arabidopsis thaliana) (UniProt F4J4R5); test: as above
[4] = biological target: T2, C-terminally tagged TCX5 (TAP bait) (Arabidopsis thaliana) (UniProt Q9SZD1); test: as above
T2 sequence: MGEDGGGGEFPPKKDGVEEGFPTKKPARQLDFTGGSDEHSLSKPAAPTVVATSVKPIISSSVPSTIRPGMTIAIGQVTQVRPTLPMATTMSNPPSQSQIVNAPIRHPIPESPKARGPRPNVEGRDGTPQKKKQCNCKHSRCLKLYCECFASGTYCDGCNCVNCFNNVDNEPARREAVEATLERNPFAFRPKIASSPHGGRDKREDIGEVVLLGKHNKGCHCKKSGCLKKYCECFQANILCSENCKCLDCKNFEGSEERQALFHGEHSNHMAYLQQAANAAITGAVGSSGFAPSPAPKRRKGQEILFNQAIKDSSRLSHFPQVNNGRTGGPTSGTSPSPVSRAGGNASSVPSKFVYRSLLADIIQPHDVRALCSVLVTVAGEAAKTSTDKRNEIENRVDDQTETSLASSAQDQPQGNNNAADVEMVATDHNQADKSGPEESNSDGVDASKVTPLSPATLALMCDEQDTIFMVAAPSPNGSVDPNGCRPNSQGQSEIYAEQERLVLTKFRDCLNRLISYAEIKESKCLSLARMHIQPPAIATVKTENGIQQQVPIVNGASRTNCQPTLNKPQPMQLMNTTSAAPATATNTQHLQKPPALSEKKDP

[5] = biological target: E2FB-GFP (Arabidopsis thaliana) (UniProt Q9FV71); test: affinity purification with mass spectrometry; FP-IP: anti-GFP antibody on magnetic beads, total protein extracts (4 mg/IP) of Arabidopsis seedlings expressing the GFP- or CFP-tagged bait under its own promoter; GFP alone as control; standard conditions, various growth regimes (meta-analysis of 182 IPs), with or without 50 uM cisplatin for 24 h; label-free LC-MS/MS
[6] = biological target: T3, DPA-GFP (Arabidopsis thaliana) (UniProt Q9FNY3); test: as above
T3 sequence: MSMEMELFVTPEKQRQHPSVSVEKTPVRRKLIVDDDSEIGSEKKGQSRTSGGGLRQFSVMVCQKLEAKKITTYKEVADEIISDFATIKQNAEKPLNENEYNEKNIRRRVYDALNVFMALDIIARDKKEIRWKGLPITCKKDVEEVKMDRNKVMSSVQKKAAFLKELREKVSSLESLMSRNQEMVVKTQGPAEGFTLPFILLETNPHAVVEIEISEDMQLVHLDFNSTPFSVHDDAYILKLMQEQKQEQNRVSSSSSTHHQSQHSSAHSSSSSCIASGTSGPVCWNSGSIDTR

[7] = biological target: E2FA-GFP (Arabidopsis thaliana) (UniProt Q9FNY0); test: as above
[8] = biological target: T4, E2FC-GFP (Arabidopsis thaliana) (UniProt Q9FV70); test: as above
T4 sequence: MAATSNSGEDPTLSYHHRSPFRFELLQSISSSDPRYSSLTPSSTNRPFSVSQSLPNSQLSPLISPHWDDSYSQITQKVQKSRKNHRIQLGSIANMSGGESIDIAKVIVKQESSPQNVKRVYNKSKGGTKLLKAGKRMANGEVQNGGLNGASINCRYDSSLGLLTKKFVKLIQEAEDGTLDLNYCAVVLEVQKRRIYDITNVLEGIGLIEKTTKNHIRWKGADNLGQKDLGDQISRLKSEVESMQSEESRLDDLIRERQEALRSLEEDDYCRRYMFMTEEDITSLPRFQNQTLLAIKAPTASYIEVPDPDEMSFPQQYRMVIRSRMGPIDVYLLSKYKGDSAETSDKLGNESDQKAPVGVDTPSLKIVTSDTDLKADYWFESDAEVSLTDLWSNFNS

binding [1]: binds | binding [2]: binds | binding [3]: binds weakly | binding [4]: binds | binding [5]: binds | binding [6]: binds | binding [7]: binds | binding [8]: binds
B1: RETINOBLASTOMA-RELATED 1 (RBR1) (protein, UniProt Q9LKZ3 1-1013)
chain: MEEVQPPVTPPIEPNGKRSEASLLDICEKVLSLDGSTCDEALKLFTETKRILSASMSNIGSGTREEVERFWFAFILYSVKRLSVRKEADGLSVSGDNEFNLCQILRALKLNIVDFFKELPQFVVKAGSVLGELYGADWENRLQAKEVQANFVHLSLLSKYYKRGFREFFLTYDANAEKNSANSSTYLLDSYRFGWLLFLALRNHAFSRFKDLVTCSNGVVSILAILIIHVPCRFRNFSIQDSSRFVKKGDKGVDLVASLCKIYDASEDELRIVIDKANNLVETILKKKPSPASECQTDKLDNIDPDGLTYFEDLLEETSISTSLITLEKDYYDGKGELDERVFINEEDSLLGSGSLSAGAVNITGVKRKIDALSSPARTFISPLSPHKSPAAKTNGISGATKLAATPVSTAMTTAKWLRTVISPLLPKPSPGLEHFLKSCDRDITNDVTRRAHIILEAIFPNSSLGAQCGGGSLQAVDLMDDIWAEQRRLEACKLYYRVLEAMCKAEAQILHANNLNSLLTNERFHRCMLACSAELVLATHKTITMLFPAVLERTGITAFDLSKVIESFIRHEDSLPRELRRHLNSLEERLLESMVWEKGSSMYNSLIVARPSLALEINQLGLLAEPMPSLDAIAALINFSDGANHASSVQKHETCPGQNGGIRSPKRLCTDYRSILVERNSFTSPVKDRLLALGNVKSKMLPPPLQSAFASPTRPNPGGGGETCAETGINIFFTKINKLAAVRINGMVERLQLSQQIRESVYCFFQHVLAQRTSLLFSRHIDQIILCCFYGVAKISQMSLTFREIIYNYRKQPQCKPLVFRSVYVDALQCRRQGRIGPDHVDIITFYNEIFIPAVKPLLVELGPVRNDRAVEANNKPEGQCPGSPKVSVFPSVPDMSPKKVSAVHNVYVSPLRGSKMDALISHSTKSYYACVGESTHAYQSPSKDLSAINNRLNNSSSNRKRTLNFDAEAGMVSDSMVANSLNLQNQNQNQNGSDASSSGGAAPLKTEPTDS

Source: PMC8500230
